From the supplement of paper PMC12819154, “High-throughput peptide-centric local stability assay extends protein–ligand identification to membrane proteins, tissues and bacteria” (Nature Structural & Molecular Biology, 2025)
The other results are listed elsewhere or left out. Most values lie at the level of the controls, where differences are scatter.

Sequences of proteins named here, by UniProt entry; tags and fusion partners are left off. A change or cut given only in a name is not applied to a line headed by its entry.
UniProt Q9NQ55: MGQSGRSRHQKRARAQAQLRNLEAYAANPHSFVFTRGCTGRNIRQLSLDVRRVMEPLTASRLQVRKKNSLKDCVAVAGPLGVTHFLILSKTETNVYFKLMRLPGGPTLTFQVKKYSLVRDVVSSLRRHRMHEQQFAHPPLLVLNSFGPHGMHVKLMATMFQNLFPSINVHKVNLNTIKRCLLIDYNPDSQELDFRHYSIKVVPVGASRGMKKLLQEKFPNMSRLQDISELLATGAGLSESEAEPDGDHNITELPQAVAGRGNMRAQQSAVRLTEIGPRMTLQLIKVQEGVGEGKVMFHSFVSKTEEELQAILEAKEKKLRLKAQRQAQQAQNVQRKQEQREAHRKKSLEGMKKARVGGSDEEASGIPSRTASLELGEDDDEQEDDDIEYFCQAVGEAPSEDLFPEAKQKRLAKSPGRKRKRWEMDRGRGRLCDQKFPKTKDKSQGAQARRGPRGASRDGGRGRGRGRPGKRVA
UniProt Q9HBM1: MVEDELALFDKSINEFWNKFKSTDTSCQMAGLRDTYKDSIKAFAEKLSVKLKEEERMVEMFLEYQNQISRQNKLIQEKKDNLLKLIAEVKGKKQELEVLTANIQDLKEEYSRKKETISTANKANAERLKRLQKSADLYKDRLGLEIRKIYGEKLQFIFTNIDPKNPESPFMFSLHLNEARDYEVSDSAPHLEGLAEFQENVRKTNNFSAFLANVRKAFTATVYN
UniProt Q9NQG6: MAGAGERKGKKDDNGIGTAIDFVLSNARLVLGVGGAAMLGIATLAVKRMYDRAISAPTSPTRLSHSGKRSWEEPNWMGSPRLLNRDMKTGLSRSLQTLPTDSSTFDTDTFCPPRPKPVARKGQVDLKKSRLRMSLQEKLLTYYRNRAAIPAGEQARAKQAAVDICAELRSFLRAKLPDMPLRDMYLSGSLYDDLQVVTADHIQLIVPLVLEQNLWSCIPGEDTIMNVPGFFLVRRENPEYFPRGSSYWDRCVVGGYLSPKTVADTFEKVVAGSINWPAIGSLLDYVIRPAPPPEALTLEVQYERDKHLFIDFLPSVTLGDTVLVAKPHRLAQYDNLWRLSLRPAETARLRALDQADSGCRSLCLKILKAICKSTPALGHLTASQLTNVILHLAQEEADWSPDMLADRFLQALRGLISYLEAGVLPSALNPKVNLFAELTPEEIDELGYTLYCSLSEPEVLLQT
UniProt Q9H568: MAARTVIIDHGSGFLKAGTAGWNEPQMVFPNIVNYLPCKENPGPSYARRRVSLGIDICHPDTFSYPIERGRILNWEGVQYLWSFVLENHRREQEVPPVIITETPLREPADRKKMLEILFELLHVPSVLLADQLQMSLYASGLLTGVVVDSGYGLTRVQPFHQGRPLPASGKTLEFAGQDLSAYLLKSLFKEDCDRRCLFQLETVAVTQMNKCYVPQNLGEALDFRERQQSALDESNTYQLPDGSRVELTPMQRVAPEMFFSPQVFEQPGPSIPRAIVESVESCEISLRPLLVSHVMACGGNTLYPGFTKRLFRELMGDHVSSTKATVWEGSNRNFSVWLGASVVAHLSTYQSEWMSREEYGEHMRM
UniProt Q9HCE5: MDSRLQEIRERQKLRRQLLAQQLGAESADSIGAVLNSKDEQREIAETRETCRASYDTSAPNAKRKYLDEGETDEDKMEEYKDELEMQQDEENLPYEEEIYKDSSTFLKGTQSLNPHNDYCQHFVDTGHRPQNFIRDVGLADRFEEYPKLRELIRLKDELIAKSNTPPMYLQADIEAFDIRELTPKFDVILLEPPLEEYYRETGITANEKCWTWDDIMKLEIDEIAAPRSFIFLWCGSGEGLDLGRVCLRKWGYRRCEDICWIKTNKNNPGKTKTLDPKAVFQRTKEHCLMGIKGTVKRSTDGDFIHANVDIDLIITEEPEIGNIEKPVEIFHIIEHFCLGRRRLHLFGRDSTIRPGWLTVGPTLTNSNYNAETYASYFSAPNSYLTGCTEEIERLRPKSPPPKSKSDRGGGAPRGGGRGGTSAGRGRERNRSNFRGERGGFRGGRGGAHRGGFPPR
UniProt Q9HAU5: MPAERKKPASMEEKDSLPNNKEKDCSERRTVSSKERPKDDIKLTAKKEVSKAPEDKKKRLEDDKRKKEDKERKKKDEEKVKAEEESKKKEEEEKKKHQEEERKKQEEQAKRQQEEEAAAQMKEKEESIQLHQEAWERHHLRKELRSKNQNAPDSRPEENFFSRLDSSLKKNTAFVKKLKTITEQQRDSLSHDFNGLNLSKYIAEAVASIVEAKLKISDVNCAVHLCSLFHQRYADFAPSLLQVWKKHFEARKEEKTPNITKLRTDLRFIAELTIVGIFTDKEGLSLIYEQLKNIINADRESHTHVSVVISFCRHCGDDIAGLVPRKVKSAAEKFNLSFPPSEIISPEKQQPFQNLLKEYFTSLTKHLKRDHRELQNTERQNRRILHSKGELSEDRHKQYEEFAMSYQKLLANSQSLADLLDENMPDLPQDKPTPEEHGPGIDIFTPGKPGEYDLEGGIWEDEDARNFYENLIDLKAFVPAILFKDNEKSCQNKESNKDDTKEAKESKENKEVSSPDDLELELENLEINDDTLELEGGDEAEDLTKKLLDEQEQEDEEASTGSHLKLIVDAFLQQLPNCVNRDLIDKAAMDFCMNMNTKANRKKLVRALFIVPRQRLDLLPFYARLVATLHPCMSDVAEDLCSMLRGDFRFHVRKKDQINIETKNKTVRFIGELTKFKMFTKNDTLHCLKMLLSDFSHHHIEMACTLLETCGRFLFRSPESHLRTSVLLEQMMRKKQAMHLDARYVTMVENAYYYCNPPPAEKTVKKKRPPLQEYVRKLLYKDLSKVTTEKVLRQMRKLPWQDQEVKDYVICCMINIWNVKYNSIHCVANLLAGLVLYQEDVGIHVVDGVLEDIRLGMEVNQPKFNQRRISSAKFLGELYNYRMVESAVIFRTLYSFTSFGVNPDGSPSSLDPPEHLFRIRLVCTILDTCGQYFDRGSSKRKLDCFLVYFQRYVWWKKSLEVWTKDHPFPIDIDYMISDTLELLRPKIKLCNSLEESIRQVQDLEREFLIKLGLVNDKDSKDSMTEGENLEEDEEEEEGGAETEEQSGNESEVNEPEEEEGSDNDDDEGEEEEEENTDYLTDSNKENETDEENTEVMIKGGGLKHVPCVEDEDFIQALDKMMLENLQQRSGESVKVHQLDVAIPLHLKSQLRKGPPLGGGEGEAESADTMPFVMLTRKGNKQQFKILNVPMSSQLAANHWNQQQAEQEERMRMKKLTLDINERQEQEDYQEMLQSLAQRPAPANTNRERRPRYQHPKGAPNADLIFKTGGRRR
UniProt Q9H7L9: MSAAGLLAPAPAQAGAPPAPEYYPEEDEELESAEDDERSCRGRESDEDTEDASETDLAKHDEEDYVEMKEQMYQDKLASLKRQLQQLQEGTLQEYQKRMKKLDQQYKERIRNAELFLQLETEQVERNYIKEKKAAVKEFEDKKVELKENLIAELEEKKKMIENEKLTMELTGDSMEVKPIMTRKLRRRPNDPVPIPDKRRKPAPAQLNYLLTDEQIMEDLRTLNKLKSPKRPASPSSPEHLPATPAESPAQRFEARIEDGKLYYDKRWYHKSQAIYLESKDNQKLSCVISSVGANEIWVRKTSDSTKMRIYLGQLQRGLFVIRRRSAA
UniProt Q9HCM7, whole entry: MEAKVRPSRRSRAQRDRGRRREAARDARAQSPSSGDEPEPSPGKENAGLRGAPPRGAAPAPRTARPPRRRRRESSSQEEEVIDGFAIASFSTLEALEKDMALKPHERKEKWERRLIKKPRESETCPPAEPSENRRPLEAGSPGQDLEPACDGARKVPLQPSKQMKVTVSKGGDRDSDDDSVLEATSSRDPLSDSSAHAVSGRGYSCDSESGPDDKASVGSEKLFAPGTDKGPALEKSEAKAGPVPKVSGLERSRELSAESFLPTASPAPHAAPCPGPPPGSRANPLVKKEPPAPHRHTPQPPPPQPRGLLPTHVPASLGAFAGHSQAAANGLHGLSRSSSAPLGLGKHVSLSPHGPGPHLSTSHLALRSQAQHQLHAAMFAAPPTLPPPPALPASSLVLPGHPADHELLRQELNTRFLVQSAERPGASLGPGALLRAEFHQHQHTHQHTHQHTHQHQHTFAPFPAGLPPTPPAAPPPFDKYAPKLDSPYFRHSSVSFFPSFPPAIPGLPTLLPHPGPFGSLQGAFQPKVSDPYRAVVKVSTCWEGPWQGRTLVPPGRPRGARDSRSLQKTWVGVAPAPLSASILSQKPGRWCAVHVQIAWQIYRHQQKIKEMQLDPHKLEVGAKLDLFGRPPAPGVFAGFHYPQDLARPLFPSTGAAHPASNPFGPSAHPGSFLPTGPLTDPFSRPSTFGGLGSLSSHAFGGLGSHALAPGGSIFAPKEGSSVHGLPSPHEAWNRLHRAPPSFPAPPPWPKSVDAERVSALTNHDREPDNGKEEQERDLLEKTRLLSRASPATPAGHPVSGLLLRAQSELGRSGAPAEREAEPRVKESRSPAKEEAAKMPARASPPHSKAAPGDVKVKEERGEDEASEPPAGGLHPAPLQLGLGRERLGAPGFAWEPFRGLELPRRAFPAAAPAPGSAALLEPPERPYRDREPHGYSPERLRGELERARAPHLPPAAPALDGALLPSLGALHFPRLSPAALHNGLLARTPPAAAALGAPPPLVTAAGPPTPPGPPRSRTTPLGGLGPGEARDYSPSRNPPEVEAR
UniProt Q9NPA3, whole entry: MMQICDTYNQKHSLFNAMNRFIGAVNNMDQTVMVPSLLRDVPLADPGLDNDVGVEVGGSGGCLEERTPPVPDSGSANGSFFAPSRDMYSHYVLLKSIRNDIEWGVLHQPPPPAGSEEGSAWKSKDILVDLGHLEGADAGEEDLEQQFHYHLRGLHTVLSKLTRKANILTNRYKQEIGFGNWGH
UniProt Q9NP79: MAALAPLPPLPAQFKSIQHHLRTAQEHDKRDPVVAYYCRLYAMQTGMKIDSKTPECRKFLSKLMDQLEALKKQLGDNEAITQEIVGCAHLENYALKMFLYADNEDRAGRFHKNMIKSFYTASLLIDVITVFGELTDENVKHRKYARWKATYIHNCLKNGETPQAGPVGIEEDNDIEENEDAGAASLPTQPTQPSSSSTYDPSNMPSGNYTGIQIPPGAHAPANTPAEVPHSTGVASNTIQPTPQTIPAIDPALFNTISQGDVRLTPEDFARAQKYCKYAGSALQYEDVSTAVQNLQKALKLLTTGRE
UniProt Q9NP66: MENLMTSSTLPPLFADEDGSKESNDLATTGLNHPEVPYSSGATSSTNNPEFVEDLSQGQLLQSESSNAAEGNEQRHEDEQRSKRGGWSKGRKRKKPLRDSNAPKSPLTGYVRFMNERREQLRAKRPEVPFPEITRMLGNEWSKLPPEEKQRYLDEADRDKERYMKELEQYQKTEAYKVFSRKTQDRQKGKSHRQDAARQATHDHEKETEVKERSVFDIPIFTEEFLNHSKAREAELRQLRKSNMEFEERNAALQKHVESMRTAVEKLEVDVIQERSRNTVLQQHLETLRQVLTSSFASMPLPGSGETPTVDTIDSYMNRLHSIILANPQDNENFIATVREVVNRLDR
UniProt Q9H707: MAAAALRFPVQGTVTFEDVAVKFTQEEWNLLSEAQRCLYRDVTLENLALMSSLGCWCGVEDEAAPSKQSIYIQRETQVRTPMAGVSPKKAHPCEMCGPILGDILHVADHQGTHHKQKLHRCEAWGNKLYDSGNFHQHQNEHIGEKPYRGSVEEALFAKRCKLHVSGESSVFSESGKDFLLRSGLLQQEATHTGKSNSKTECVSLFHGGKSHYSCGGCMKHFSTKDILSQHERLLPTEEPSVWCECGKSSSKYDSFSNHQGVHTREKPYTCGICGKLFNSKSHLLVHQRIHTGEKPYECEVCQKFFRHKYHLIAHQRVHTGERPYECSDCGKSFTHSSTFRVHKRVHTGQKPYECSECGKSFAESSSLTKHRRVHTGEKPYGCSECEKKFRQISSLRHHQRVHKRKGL
UniProt Q9H8Y5: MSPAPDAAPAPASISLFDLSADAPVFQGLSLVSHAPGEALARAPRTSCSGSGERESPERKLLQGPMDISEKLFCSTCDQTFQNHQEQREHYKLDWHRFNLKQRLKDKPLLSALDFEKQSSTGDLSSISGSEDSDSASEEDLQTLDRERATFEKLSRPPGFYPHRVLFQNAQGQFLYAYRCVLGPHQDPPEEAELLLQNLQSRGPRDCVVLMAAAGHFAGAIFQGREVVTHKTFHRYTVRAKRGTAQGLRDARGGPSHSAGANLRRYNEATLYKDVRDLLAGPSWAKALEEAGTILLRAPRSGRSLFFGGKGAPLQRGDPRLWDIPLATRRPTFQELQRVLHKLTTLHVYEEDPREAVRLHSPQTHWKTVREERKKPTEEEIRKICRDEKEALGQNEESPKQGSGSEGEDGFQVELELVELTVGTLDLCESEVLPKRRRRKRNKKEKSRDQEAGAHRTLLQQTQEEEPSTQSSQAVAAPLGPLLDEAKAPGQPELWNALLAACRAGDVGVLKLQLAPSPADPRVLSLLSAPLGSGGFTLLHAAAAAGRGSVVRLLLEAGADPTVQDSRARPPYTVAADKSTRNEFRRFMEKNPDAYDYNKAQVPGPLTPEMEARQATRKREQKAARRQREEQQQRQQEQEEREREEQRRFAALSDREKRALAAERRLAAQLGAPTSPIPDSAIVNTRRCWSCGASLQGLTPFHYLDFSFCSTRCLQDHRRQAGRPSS

Compound: CN[C@@H]1C[C@H]2O[C@@](C)([C@@H]1OC)n1c3ccccc3c3c4c(c5c6ccccc6n2c5c31)C(=O)NC4 [staurosporine]
Test: log2 fold change of tryptic peptide abundance, ligand vs vehicle (limited proteolysis) (log2 ratio); higher = more trypsin-susceptible (destabilized)
Conditions: ligand concentration: 20 uM; sample: K562 cleared lysate; digestion: 4 min, 22 C (HT-PELSA RT4min, Orbitrap Astral)

| Target | log2 fold change |
| --- | --- |
| UniProt Q9HBZ2 (peptide sequence: ENHSEIER, peptide start residue: 92) | -0.199 |
| PPAN (peptide sequence: VNLNTIKR, peptide start residue: 172) (UniProt Q9NQ55) | 0.468 |
| JADE2 (peptide sequence: KPSEVFR, peptide start residue: 43) (UniProt Q9NQC1) | 0.126 |
| SPC25 (peptide sequence: MVEMFLEYQNQISR, peptide start residue: 57) (UniProt Q9HBM1) | -0.703 |
| ISYNA1 (peptide sequence: VLDWGLQEQLWPHMEALRPR, peptide start residue: 156) (UniProt Q9NPH2) | 0.196 |
| TNRC6C (peptide sequence: QLAQALLVK, peptide start residue: 1205) (UniProt Q9HCJ0) | -0.293 |
| GRPEL1 (peptide sequence: EEIKDDNPHLK, peptide start residue: 128) (UniProt Q9HAV7) | 0.275 |
| EHD1 (peptide sequence: ADQIETQQLMR, peptide start residue: 221) (UniProt Q9H4M9) | 0.148 |
| MRPL47 (peptide sequence: NMLLTLEQEAKR, peptide start residue: 110) (UniProt Q9HD33) | 0.491 |
| TXNRD2 (peptide sequence: EILLSADHIIIATGGRPR, peptide start residue: 176) (UniProt Q9NNW7) | 0.262 |
| HPS4 (peptide sequence: SLASPAGLQDGSAQHHPK, peptide start residue: 269) (UniProt Q9NQG7) | -0.185 |
| EHMT1 (peptide sequence: KLPAPGADVK, peptide start residue: 190) (UniProt Q9H9B1) | 0.237 |
| UniProt Q9NQG6 (peptide sequence: AISAPTSPTR, peptide start residue: 53) | 0.201 |
| PARVB (peptide sequence: TMIDPTSKEDPKFK, peptide start residue: 74) (UniProt Q9HBI1) | 0.354 |
| RPAP3 (peptide sequence: AIELQLQVK, peptide start residue: 7) (UniProt Q9H6T3) | -0.128 |
| ACTL8 (peptide sequence: ENPGPSYAR, peptide start residue: 40) (UniProt Q9H568) | -0.152 |
| UniProt Q9HCE5 (peptide sequence: ETCRASYDTSAPNAK, peptide start residue: 49) | -0.613 |
| WDR41 (peptide sequence: TVIVWDGDTTR, peptide start residue: 114) (UniProt Q9HAD4) | -0.409 |
| UPF2 (peptide sequence: ISDVNCAVHLCSLFHQR, peptide start residue: 216) (UniProt Q9HAU5) | -0.149 |

| Target | log2 fold change |
| --- | --- |
| SUDS3 (peptide sequence: IYLGQLQR, peptide start residue: 310) (UniProt Q9H7L9) | 0.617 |
| UniProt Q9HCM7 (peptide sequence: KVPLQPSK, peptide start residue: 155) | 0.394 |
| ARFGAP3 (peptide sequence: KPDYEPVENTDEAQKK, peptide start residue: 405) (UniProt Q9NP61) | 0.602 |
| YY1AP1 (peptide sequence: LKPVADRFPK, peptide start residue: 438) (UniProt Q9H869) | -0.301 |
| RABEP2 (peptide sequence: AYPLDSLEK, peptide start residue: 132) (UniProt Q9H5N1) | -0.132 |
| UniProt Q9NPA3 (peptide sequence: QEIGFGNWGH, peptide start residue: 174) | -0.213 |
| DHX35 (peptide sequence: TLYTDIAIGLLKK, peptide start residue: 182) (UniProt Q9H5Z1) | 0.561 |
| UniProt Q9H871 (peptide sequence: KCWYHSIFACPILR, peptide start residue: 327) | -0.473 |
| VTA1 (peptide sequence: ATYIHNCLK, peptide start residue: 149) (UniProt Q9NP79) | 0.338 |
| ZNF335 (peptide sequence: CPDCPFSAR, peptide start residue: 1049) (UniProt Q9H4Z2) | -0.285 |
| UniProt Q9H773 (peptide sequence: LHAEFAAER, peptide start residue: 37) | -0.717 |
| HMG20A (peptide sequence: YLDEADRDKER, peptide start residue: 152) (UniProt Q9NP66) | -0.242 |
| ZNF552 (peptide sequence: YDSFSNHQGVHTR, peptide start residue: 252) (UniProt Q9H707) | 0.359 |
| AKTIP (peptide sequence: SVHVAGLSWVKPGSVQPFSK, peptide start residue: 266) (UniProt Q9H8T0) | -0.77 |
| PEAK1 (peptide sequence: GAVDDAIAFGGK, peptide start residue: 1128) (UniProt Q9H792) | 0.379 |
| GPCPD1 (peptide sequence: SCLCPTVSR, peptide start residue: 639) (UniProt Q9NPB8) | 0.23 |
| CXorf56 (peptide sequence: SVVCSDTR, peptide start residue: 8) (UniProt Q9H5V9) | -0.167 |
| ANKZF1 (peptide sequence: KKPTEEEIR, peptide start residue: 374) (UniProt Q9H8Y5) | 0.218 |

Looked up one by one from the list above (three):

| Target | log2 fold change |
| --- | --- |
| GRPEL1 (peptide sequence: EEIKDDNPHLK, peptide start residue: 128) (UniProt Q9HAV7) | 0.275 |
| ACTL8 (peptide sequence: ENPGPSYAR, peptide start residue: 40) (UniProt Q9H568) | -0.152 |
| VTA1 (peptide sequence: ATYIHNCLK, peptide start residue: 149) (UniProt Q9NP79) | 0.338 |
